The source of these data is paper PMC11039992.

One experiment addresses T1, V5-RBM41 (human) (UniProt Q96IZ5).
T1 sequence: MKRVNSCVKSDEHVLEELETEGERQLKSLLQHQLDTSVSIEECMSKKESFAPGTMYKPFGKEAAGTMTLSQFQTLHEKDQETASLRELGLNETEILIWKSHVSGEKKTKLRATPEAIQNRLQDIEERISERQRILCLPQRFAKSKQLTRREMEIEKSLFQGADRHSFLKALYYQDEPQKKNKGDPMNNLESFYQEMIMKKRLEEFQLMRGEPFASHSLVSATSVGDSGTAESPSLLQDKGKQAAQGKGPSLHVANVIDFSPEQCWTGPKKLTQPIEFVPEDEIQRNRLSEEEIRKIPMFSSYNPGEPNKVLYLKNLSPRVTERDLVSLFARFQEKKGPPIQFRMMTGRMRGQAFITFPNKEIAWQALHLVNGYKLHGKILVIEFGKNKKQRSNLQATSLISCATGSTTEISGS
Briefly: co-IP; anti-V5 or control antibody crosslinked (BS3) to Dynabeads Protein G; lysate of Flp-In T-REx 293 cell lines expressing V5-RBM41 or V5-65K; lysis buffer 20 mM HEPES pH 7.9, 137 mM NaCl, 10% glycerol, 1% NP-40; western blot.

Another experiment concerns the target T2, V5-65K (human) (UniProt Q96LT9).
T2 sequence: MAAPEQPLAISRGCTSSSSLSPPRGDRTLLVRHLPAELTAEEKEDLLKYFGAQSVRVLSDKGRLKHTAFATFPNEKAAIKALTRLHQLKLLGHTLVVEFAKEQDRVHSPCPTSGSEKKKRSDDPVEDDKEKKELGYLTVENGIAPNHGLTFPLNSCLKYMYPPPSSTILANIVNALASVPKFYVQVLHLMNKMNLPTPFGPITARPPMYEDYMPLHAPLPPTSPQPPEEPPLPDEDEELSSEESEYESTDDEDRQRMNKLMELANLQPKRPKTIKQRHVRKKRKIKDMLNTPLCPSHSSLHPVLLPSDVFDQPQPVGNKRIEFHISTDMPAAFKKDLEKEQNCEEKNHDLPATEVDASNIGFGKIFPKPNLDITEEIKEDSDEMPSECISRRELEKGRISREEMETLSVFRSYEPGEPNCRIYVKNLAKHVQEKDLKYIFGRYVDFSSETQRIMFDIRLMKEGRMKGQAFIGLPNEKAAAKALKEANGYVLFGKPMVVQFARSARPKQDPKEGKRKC
Described as above.

Results are given in words; binding and its absence hold for the method and conditions named. In cells and extracts the contact can be indirect. Some binding calls cover weakened binding; strength is not graded here. Tags and fused reporters may be left off the sequences shown.

B1: DEAH-box RNA helicase DHX8 (enzyme, UniProt Q14562 1-1220)
chain: MAVAVAMAGALIGSEPGPAEELAKLEYLSLVSKVCTELDNHLGINDKDLAEFVISLAEKNTTFDTFKASLVKNGAEFTDSLISNLLRLIQTMRPPAKPSTSKDPVVKPKTEKEKLKELFPVLCQPDNPSVRTMLDEDDVKVAVDVLKELEALMPSAAGQEKQRDAEHRDRTKKKKRSRSRDRNRDRDRDRERNRDRDHKRRHRSRSRSRSRTRERNKVKSRYRSRSRSQSPPKDRKDRDKYGERNLDRWRDKHVDRPPPEEPTIGDIYNGKVTSIMQFGCFVQLEGLRKRWEGLVHISELRREGRVANVADVVSKGQRVKVKVLSFTGTKTSLSMKDVDQETGEDLNPNRRRNLVGETNEETSMRNPDRPTHLSLVSAPEVEDDSLERKRLTRISDPEKWEIKQMIAANVLSKEEFPDFDEETGILPKVDDEEDEDLEIELVEEEPPFLRGHTKQSMDMSPIKIVKNPDGSLSQAAMMQSALAKERRELKQAQREAEMDSIPMGLNKHWVDPLPDAEGRQIAANMRGIGMMPNDIPEWKKHAFGGNKASYGKKTQMSILEQRESLPIYKLKEQLVQAVHDNQILIVIGETGSGKTTQITQYLAEAGYTSRGKIGCTQPRRVAAMSVAKRVSEEFGCCLGQEVGYTIRFEDCTSPETVIKYMTDGMLLRECLIDPDLTQYAIIMLDEAHERTIHTDVLFGLLKKTVQKRQDMKLIVTSATLDAVKFSQYFYEAPIFTIPGRTYPVEILYTKEPETDYLDASLITVMQIHLTEPPGDILVFLTGQEEIDTACEILYERMKSLGPDVPELIILPVYSALPSEMQTRIFDPAPPGSRKVVIATNIAETSLTIDGIYYVVDPGFVKQKVYNSKTGIDQLVVTPISQAQAKQRAGRAGRTGPGKCYRLYTERAYRDEMLTTNVPEIQRTNLASTVLSLKAMGINDLLSFDFMDAPPMETLITAMEQLYTLGALDDEGLLTRLGRRMAEFPLEPMLCKMLIMSVHLGCSEEMLTIVSMLSVQNVFYRPKDKQALADQKKAKFHQTEGDHLTLLAVYNSWKNNKFSNPWCYENFIQARSLRRAQDIRKQMLGIMDRHKLDVVSCGKSTVRVQKAICSGFFRNAAKKDPQEGYRTLIDQQVVYIHPSSALFNRQPEWVVYHELVLTTKEYMREVTTIDPRWLVEFAPAFFKVSDPTKLSKQKKQQRLEPLYNRYEEPNAWRISRAFRRR
For B1, in the experiment with V5-RBM41 (human), the binding result was “binds”.

B2: U11-48K (SNRNP48) (protein, UniProt Q6IEG0 1-339)
chain: MEGEPPPVEERRRLQEELNEFVESGCRTLEEVTASLGWDLDSLDPGEEEAAEDEVVICPYDSNHHMPKSSLAKHMASCRLRKMGYTKEEEDEMYNPEFFYENVKIPSITLNKDSQFQIIKQARTAVGKDSDCYNQRIYSSLPVEVPLNHKRFVCDLTQADRLALYDFVVEETKKKRSDSQIIENDSDLFVDLAAKINQDNSRKSPKSYLEILAEVRDYKRRRQSYRAKNVHITKKSYTEVIRDVINVHMEELSNHWQEEQEKAEDDAEKNEERRSASVDSRQSGGSYLDAECSRHRRDRSRSPHKRKRNKDKDKNCESRRRKERDGERHHSHKRRKQKI
Consider B2, for which the binding entry in the experiment with V5-RBM41 (human) was “no binding”; in the experiment with V5-65K (human) it was “binds”.

B3: U11-59K (PDCD7) (protein, UniProt Q8N8D1 1-485)
chain: MALPPFFGQGRPGPPPPQPPPPAPFGCPPPPLPSPAFPPPLPQRPGPFPGASAPFLQPPLALQPRASAEASRGGGGAGAFYPVPPPPLPPPPPQCRPFPGTDAGERPRPPPPGPGPPWSPRWPEAPPPPADVLGDAALQRLRDRQWLEAVFGTPRRAGCPVPQRTHAGPSLGEVRARLLRALRLVRRLRGLSQALREAEADGAAWVLLYSQTAPLRAELAERLQPLTQAAYVGEARRRLERVRRRRLRLRERAREREAEREAEAARAVEREQEIDRWRVKCVQEVEEKKREQELKAAADGVLSEVRKKQADTKRMVDILRALEKLRKLRKEAAARKGVCPPASADETFTHHLQRLRKLIKKRSELYEAEERALRVMLEGEQEEERKRELEKKQRKEKEKILLQKREIESKLFGDPDEFPLAHLLEPFRQYYLQAEHSLPALIQIRHDWDQYLVPSDHPKGNFVPQGWVLPPLPSNDIWATAVKLH
Regarding B3, the binding result is given as “no binding” with V5-RBM41 (human) and “binds” in the experiment with V5-65K (human).
